Assay results published in article PMC8835842, “YdfD, a Lysis Protein of the Qin Prophage, Is a Specific Inhibitor of the IspG-Catalyzed Step in the MEP Pathway of Escherichia coli” (International Journal of Molecular Sciences, 2022).
Results are given in words; binding and its absence hold for the method and conditions named. Binding seen in cells or lysates may run through a third protein. Here binding means that the protein was enriched with, or labelled near, the bait; the list need not be complete. Where a sequence is shown, tags or fusion partners need not be part of it.

Target: T1, His-YdfD (E. coli BL21(DE3)) (UniProt P29010)
T1 sequence: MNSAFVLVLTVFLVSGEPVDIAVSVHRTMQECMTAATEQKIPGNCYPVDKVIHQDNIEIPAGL
Assay: affinity purification with mass spectrometry; His-YdfD made in E. coli BL21(DE3) as bait for the whole cell lysate on Ni-NTA; 3 washes with 20 mM Tris, 250 mM NaCl, pH 8.0; SDS-PAGE, trypsin, MS

- binding: binds
B1: IspG-His (enzyme, E. coli BL21(DE3), UniProt P62620 1-372, looked up)
chain: MHNQAPIQRRKSTRIYVGNVPIGDGAPIAVQSMTNTRTTDVEATVNQIKALERVGADIVRVSVPTMDAAEAFKLIKQQVNVPLVADIHFDYRIALKVAEYGVDCLRINPGNIGNEERIRMVVDCARDKNIPIRIGVNAGSLEKDLQEKYGEPTPQALLESAMRHVDHLDRLNFDQFKVSVKASDVFLAVESYRLLAKQIDQPLHLGITEAGGARSGAVKSAIGLGLLLSEGIGDTLRVSLAADPVEEIKVGFDILKSLRIRSRGINFIACPTCSRQEFDVIGTVNALEQRLEDIITPMDVSIIGCVVNGPGEALVSTLGVTGGNKKSGLYEDGVRKDRLDNNDMIDQLEARIRAKASQLDEARRIDVQQVEK
notes: ispG amplified from the E. coli BL21(DE3) genome; also called His-tagged ispG; GcpE; source: E. coli BL21(DE3); coexpressed with YdfD constructs, in lysate; and purified (Ni-NTA, Superdex 200)
